Experimental data: PubChem BioAssay AID485349 (National Center for Advancing Translational Sciences (NCATS), 2010)
Out of some 320,000 compounds screened, about 620 (0.19%) were called active. Inconclusive results, whose numbers are uncertain, are shown with a selection of clear calls. Calls come from the whole dose curve; as a rule, active = well fitted activation curve with a large enough effect; inconclusive = small, poorly fitted or top-dose-only effect; inactive = no such curve, though single readings can be large or run the other way. Potencies of inconclusive entries are doubtful fits and often do not repeat.

assay: qHTS Assay for Identifying a Potential Treatment of Ataxia-Telangiectasia; conditions: […] A-T fibroblasts, KAP-1 phosphorylation AlphaLISA, neocarzinostatin DNA damage 30 min before lysis; series mostly up to 57.5 µM; note: nearly all actives have a fitted effect of over 45% in size
How it was run: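 hTERT-immortalized A-T patient fibroblasts ([…]), 500 cells/well in OPTI-MEM, 1% FBS, got compounds for 60 min, then NCS for 30 min at 37C. Lysates were then assayed for phospho-KAP-1 by AlphaLISA (anti-pKAP1 donor, anti-KAP1 acceptor beads), 6 hr at 25C.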
Potency is the fitted concentration of half-maximal effect.

| Structure (SMILES) | Potency |
| --- | --- |
| COc1ccc(CCNC(=O)COC(=O)/C=C/c2cc(OC)ccc2OC)cc1 | inconclusive: 35.5 µM [activator, single point] |
| CCCCCN(C(=O)CCC(=O)OCC(=O)N(CC#N)c1ccccc1)c1c(N)n(CCCC)c(=O)[nH]c1=O | inactive |
| Cc1ccc2c(c1C)NC(=O)C21N2CCCC2C(C(=O)c2ccc3ccccc3c2)C12C(=O)Nc1ccccc12 (stereo not given) | inconclusive: 39.8 µM [activator, single point] |
| CCOC(=O)c1sc2nc(C)nc(N3CCCCC3C)c2c1C (stereo not given) | inconclusive: 35.5 µM [activator, single point] |
| CC(C)c1cc(CNC(=O)CCc2nnc(CCCCc3ccccc3)o2)on1 | inconclusive: 22.4 µM [activator, single point] |
| COC(=O)N=Nc1c(O)n(Cc2ccccc2)c2ccccc12 | active: 25.1 µM |
| FC(F)(F)c1cc(-c2ccco2)nc(NCc2cccs2)n1 | inconclusive: 3.98 µM [activator, single point] |
| CCN1C(=O)[C@H]2[C@@H](c3ccc(-c4ccc5c(c4)OCO5)cc3)N3CCC[C@@]3(C(=O)OC)[C@H]2C1=O | inconclusive: 39.8 µM [activator, single point] |
| Cc1noc(C)c1CSCC(=O)Nc1ccc(S(C)(=O)=O)cc1 | inconclusive: 1.12 µM [activator, full curve] |
| CCn1nc(NC(=O)C(C)(C)C)c2cc3cccc(C)c3nc21 | inconclusive: 35.5 µM [activator, single point] |
| COc1ccc(C(O)c2nc3ccccc3n2C(C)C)cc1 (stereo not given) | active: 28.2 µM |
| C/C(CCC1CC(C)OC1=O)=N\NC(N)=O (stereo not given) | inconclusive: 4.47 µM [activator, single point] |
| COc1ccc(C(CNC(=O)C(Cc2ccccc2)NC(N)=O)N(C)C)cc1 (stereo not given) | active: 0.891 µM |
| CCOC(=O)c1ccccc1N=N/C(C(C)=O)=C(/C)O | inactive |
| O=C(CN1CCOCC1)Nc1ncc(Cc2ccccc2Cl)s1 | inactive |
| CCN(c1ccccc1)S(=O)(=O)c1ccc(Cl)c(C(=O)N(CC2CCCO2)C2CCS(=O)(=O)C2)c1 (stereo not given) | inconclusive: 2 µM [activator, full curve] |
| Cc1ccc(S(=O)(=O)N2CCC[C@H]2C(=O)OCC(=O)c2ccc3c(c2)NC(=O)CO3)cc1 | inconclusive: 3.55 µM [activator, partial curve] |
| O=C(Nc1cccc(Cl)c1N1CCCC1)c1ccc(Br)o1 | inconclusive: 31.6 µM [activator, single point] |
| Cc1ccccc1-c1nc(C(=O)NCC2CCCO2)cc2c1[nH]c1ccccc12 (stereo not given) | inactive |
| COC(=O)C1=CN(Cc2ccc(OC)c(OC)c2)C=C(C(=O)OC)C1c1cccc(F)c1 | inconclusive: 28.2 µM [activator, partial curve] |
| COc1ccc(-c2oc3cccnc3c2/C=C/c2ccc(OC)c(OC)c2)cc1 | active: 28.2 µM |
| COc1ccc(-c2nn(-c3ccccc3)cc2C(=O)O)cc1 | inconclusive: 0.631 µM [activator, full curve, poor fit] |
| Cc1ccc(-c2cc(C(=O)N/N=C/c3ccccc3O)n[nH]2)o1 | inconclusive: 39.8 µM [activator, single point] |
| CC(C)c1ccc(N2CCN(C(=O)c3ccccc3NC(=O)/C=C(\C(=O)O)c3ccccc3)CC2)cc1 | inconclusive: 39.8 µM [activator, single point] |

| Structure (SMILES) | Potency |
| --- | --- |
| Cc1ccc(C)c(OCC(=O)Nc2ccc(C(=O)O)cc2NC(=O)COc2cc(C)ccc2C)c1 | inconclusive: 2.82 µM [activator, full curve, poor fit] |
| COc1ccc(C)cc1N1C(=N)/C(=C2/Nc3ccccc3S2)C(c2ccccc2)C1=O (stereo not given) | inactive |
| FC(F)Oc1ccc(-n2cc(-c3ccccc3)[n+]3c2CCCCC3)cc1 | active: 14.1 µM |
| Cc1cc(NC(=O)CN2C(=O)NC3(CCCCC3)C2=O)ccc1N1CCCC1 | inactive |
| Cc1ccc(CNC(=O)COC(=O)CN2C(=O)C3CC=CCC3C2=O)cc1 (stereo not given) | inconclusive: 3.55 µM [activator, partial curve] |
| O=C(CN(c1ccccc1Cl)S(=O)(=O)c1ccccc1)N/N=C/c1ccccc1C(=O)O | inconclusive: 5.01 µM [activator, single point] |
| O=C(CSc1cccc(C(F)(F)F)c1)Nc1cc(S(=O)(=O)N2CCCC2)ccc1Cl | inconclusive: 3.55 µM [activator, single point] |
| N#C/C(=C(/O)COC(=O)c1ccc(O)cc1)c1nc2ccccc2[nH]1 | inactive |
| Cc1cc(NC(=O)Nc2cc(Cl)ccc2C)no1 | inconclusive: 0.708 µM [activator, full curve, poor fit] |
| CCOC(=O)c1cc(-c2ccccc2)nc2nc(N3CCCCC3)sc12 | inactive |
| CSc1nn(CCc2ccncc2)c(=S)s1 | inconclusive: 7.08 µM [activator, single point] |
| CCc1ccc2c(COC(=O)C3CSC4(C)CCC(=O)N34)cc(=O)oc2c1 (stereo not given) | inactive |
| CC(C)OCCCNC(=O)CCCC(=O)Nc1ccc(OCCc2ccccc2)cc1 | inconclusive: 3.16 µM [activator, partial curve] |
| O=C1C(Cl)=C(NC(=O)c2ccccc2)C(=O)C(Cl)=C1NC(=O)c1ccccc1 | inconclusive: 6.31 µM [activator, single point] |
| CCCC(=O)NCCc1cc2ccc(OC)cc2[nH]c1=O | inactive |
| CC(=O)Nc1ccc(Nc2cc(C)nc3c(-c4ccc(Cl)cc4)c(C)nn23)cc1 | inconclusive: 25.1 µM [activator, single point] |
| COc1ccc(NC(=O)CN(C)C(=O)CSCc2ccc(C)cc2)cc1 | inconclusive: 1.41 µM [activator, partial curve] |
| COCCCNC(=O)CC1C[C@H](C(=O)N2CCCCC2)[C@@]2(CCc3ccccc3)c3[nH]c4ccc(OC)cc4c3CCN2C1=O (stereo not given in full) | inactive |
| CCCC(=O)NC(=S)Nc1cccc(Cl)c1N1CCCCC1 | active: 28.2 µM |
| Cc1cccn2c(N)c(-c3ccccc3)nc12 | inconclusive: 35.5 µM [activator, partial curve, poor fit] |
| Cc1ccc(NC(=O)c2sccc2-n2cccc2)c(C)c1 | inactive |
| COC(=O)[C@]1(C)N[C@H](c2ccc(SC3CCCCC3)cc2)[C@@H]2C(=O)N(C)C(=O)[C@@H]21 | inconclusive: 35.5 µM [activator, partial curve] |
| COc1ccc(CNC(=O)N[C@@H](CC(C)C)C(=O)O)cc1OC | inconclusive: 39.8 µM [activator, single point] |
| CC(C)c1nc(N2CCOCC2)c(C#N)c2c1CCCC2 | inconclusive: 31.6 µM [activator, single point] |

2 of these compounds, reformatted:
Structure (SMILES)	Potency
COc1ccc(C(O)c2nc3ccccc3n2C(C)C)cc1 (stereo not given)	active: 28.2 µM
C/C(CCC1CC(C)OC1=O)=N\NC(N)=O (stereo not given)	inconclusive: 4.47 µM [activator, single point]

Additional structures.

| Structure (SMILES) | Potency |
| --- | --- |
| CCOC(=O)c1ccccc1NC(=O)c1cc2sccc2n1C | inactive |
| O=C(O)COc1ccccc1/C=N/NC(=O)CNC(=O)c1ccco1 | inconclusive: 6.31 µM [activator, single point] |
| [N-]=[N+]=CC(=O)C(Cc1ccccc1)N1C(=O)c2ccccc2C1=O (stereo not given) | inactive |
| COc1cc(/C=C/C(=O)c2ccc3c(c2)OCCO3)cc(Br)c1OCC(=O)N(C)C | inconclusive: 39.8 µM [activator, single point] |
| CCOC(=O)c1sc(NC(=O)c2ccc3nc[nH]c3c2)nc1C | inconclusive: 39.8 µM [activator, single point] |
| S=c1nc(-c2ccccc2)[nH]c2ccc(Br)cc12 | active: 31.6 µM |
| CC1CCN(c2nc(/C=C/c3ccccc3)nc3ccccc23)CC1 | inconclusive: 28.2 µM [activator, single point] |
| Cc1ccc(O)c(-c2cc(C(F)(F)F)[nH]n2)c1 | inactive |
| CCC(C)[C@H]1CN=C(N)N1CCc1cc(C(F)(F)F)cc(C(F)(F)F)c1 (stereo not given in full) | inconclusive: 3.55 µM [activator, partial curve, poor fit] |
| C(=C\c1ccco1)/C=N/n1cnnc1 | inconclusive: 31.6 µM [activator, partial curve, poor fit] |
| CC(/C=C1\SC(=S)N(c2ccc(C(=O)O)cc2)C1=O)=C\c1ccccc1 | inactive |
| CCC1COC(c2cccn2Cc2ccc(Cl)cc2)=N1 (stereo not given) | inconclusive: 35.5 µM [activator, single point] |
| Cc1c(C)c(C)c(S(=O)(=O)Nc2ccc3[nH]c(=O)[nH]c3c2)c(C)c1C | inactive |
| COC(=O)c1nc(Cl)c(Cl)c(N)c1Cl | inactive |
| N#Cc1cc(-c2ccc(Cl)cc2)cnc1Sc1ccc(F)cc1 | inactive |
| CCOC(=O)c1c(C)oc2c1c(CN1CCN(C(=O)OCC)CC1)c(O)c1ccccc12 | active: 31.6 µM |
| COc1ccc(C=C(c2nc3ccccc3s2)c2nc3ccccc3s2)cc1O | active: 28.2 µM |
| CC(C)c1ccc(NC(=O)C(c2ccccc2)N2CC(=O)Nc3ccccc32)cc1 (stereo not given) | active: 35.5 µM |
| Cc1ccc(-c2csc(-c3c[nH]c4ccccc34)n2)c(C)c1 | inconclusive: 20 µM [activator, partial curve] |
| CC(=O)OC[C@]12CC[C@H]3[C@@](C)(CC[C@H]4C(C)(C)CCC[C@]34C)[C@@H]1C[C@H](C1=CC(=O)O[C@@H]1OC(C)=O)O2 | active: 39.8 µM |
| CC(C)OC(=O)c1sc2nc(-c3ccccc3)ccc2c1N | inconclusive: 20 µM [activator, partial curve] |
| O=C(Cn1ccc(=O)[nH]c1=O)Nc1ccc(C(=O)O)c(O)c1 | inconclusive: 0.631 µM [activator, full curve, poor fit] |

Some of the entries so far, with bars between the fields:
Structure (SMILES) | Potency
[N-]=[N+]=CC(=O)C(Cc1ccccc1)N1C(=O)c2ccccc2C1=O (stereo not given) | inactive
COc1cc(/C=C/C(=O)c2ccc3c(c2)OCCO3)cc(Br)c1OCC(=O)N(C)C | inconclusive: 39.8 µM [activator, single point]
CCOC(=O)c1sc(NC(=O)c2ccc3nc[nH]c3c2)nc1C | inconclusive: 39.8 µM [activator, single point]
S=c1nc(-c2ccccc2)[nH]c2ccc(Br)cc12 | active: 31.6 µM
CC1CCN(c2nc(/C=C/c3ccccc3)nc3ccccc23)CC1 | inconclusive: 28.2 µM [activator, single point]
Cc1ccc(O)c(-c2cc(C(F)(F)F)[nH]n2)c1 | inactive
CCC(C)[C@H]1CN=C(N)N1CCc1cc(C(F)(F)F)cc(C(F)(F)F)c1 (stereo not given in full) | inconclusive: 3.55 µM [activator, partial curve, poor fit]
C(=C\c1ccco1)/C=N/n1cnnc1 | inconclusive: 31.6 µM [activator, partial curve, poor fit]
CC(/C=C1\SC(=S)N(c2ccc(C(=O)O)cc2)C1=O)=C\c1ccccc1 | inactive
CCC1COC(c2cccn2Cc2ccc(Cl)cc2)=N1 (stereo not given) | inconclusive: 35.5 µM [activator, single point]
Cc1c(C)c(C)c(S(=O)(=O)Nc2ccc3[nH]c(=O)[nH]c3c2)c(C)c1C | inactive
COC(=O)c1nc(Cl)c(Cl)c(N)c1Cl | inactive
N#Cc1cc(-c2ccc(Cl)cc2)cnc1Sc1ccc(F)cc1 | inactive
CCOC(=O)c1c(C)oc2c1c(CN1CCN(C(=O)OCC)CC1)c(O)c1ccccc12 | active: 31.6 µM
